Data from PMC10533337.
For at least one entry, the source does not settle the construct or the ends of the probe. No signal at the amounts used counts as a negative. Where a protein sequence is shown, tags need not be part of it.

Target: T1, His-MYB156 (UniProt A0A9E9JN96)
T1 sequence (looked up, limits assumed): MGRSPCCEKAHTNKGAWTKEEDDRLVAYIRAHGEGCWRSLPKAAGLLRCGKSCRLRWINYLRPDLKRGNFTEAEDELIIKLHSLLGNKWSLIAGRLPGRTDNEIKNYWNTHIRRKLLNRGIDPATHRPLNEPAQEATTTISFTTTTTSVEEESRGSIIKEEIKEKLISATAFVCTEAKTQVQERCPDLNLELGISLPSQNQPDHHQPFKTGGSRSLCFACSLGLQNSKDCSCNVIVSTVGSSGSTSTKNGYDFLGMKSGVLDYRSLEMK
Experiment: EMSA
Settings: poly(dI-dC) 25 ng/uL; 20 uL: 1x binding buffer (LightShift kit, Thermo), 0.05% NP40, 1 mM DTT, 2.5 mM MgCl2, 25 ng/uL poly(dI-dC), 200 ng protein, 2.5 ng probe; room temperature, 30 min; recombinant protein; protein details: His (pET30a); label: 5' biotin

“TTTTTTATTTAGATAGTAATAATTTTAGG (double strand) [P1mAC probe (AC-III mutated to AAATAAA)]”: no binding.
